Source: PubChem BioAssay AID2685 (National Center for Advancing Translational Sciences (NCATS), 2010)
The list shows a part of the results. Further columns of the screen follow, without active or inactive calls. The list favours compounds with an active or inconclusive main result. Words in brackets tell the shape of the fitted curve; partial curves, single points and poor fits give uncertain potencies.

Experiment: qHTS Assay for Lipid Storage Modulators in Drosophila S3 Cells;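 as to cell number change: cells counted by Cell Tracker Red CMTPX staining in the red channel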
Details: BODIPY lipid droplet fluorescence, 18-24 h; for cell number change: measured here: cell count max response, cells fed with added oleic acid
How it was run: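 Drosophila S3 cells loaded with oleic acid (400 uM, as added) and compounds at several concentrations; lipid droplets imaged by 488-nm laser-scanning cytometry, 500–530 nm intensity and object ratio to cell channel. Percent activity normalized to 20 uM Triacsin C.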

[1] = measured here: cell number channel AC50, cells fed with added oleic acid
[2] = measured here: lipid fluorescence (Fed channel) AC50, cells fed with added oleic acid

COc1ccccc1N1CCN(C(=O)/C=C/c2cccs2)CC1
cell number change: -43.4%
AC50 [1]: 25.9 µM [falling, single point]

O=C(Nc1ccc2c(c1)OCO2)c1nn(-c2ccccc2)c(=O)c2ccccc12
cell number change: 228%
AC50 [1]: 8.2 µM [rising, partial curve]
AC50 [2]: 6.51 µM [rising, partial curve]

COc1ccc2oc(=O)c(C(=O)N3CCN(c4ccccc4)CC3)cc2c1
cell number change: 1.75%
AC50 [2]: 6.51 µM [falling, single point]

CCN1C(=O)C2CCCCN2c2ccc(C(=O)NCCOC)cc21 (configuration not stated)
cell number change: 22.5%
AC50 [2]: 2.31 µM [rising, full curve]

CCCCNC(=O)CSc1nc2n[nH]c(C)c2c(=N)n1-c1cccc(Cl)c1C
cell number change: -33.5%
AC50 [1]: 18.4 µM [falling, single point]
AC50 [2]: 29.1 µM [falling, single point]

CCn1c(SCC(=O)c2ccccc2)nnc1-c1cc2cc(Br)ccc2o1
cell number change: 51.9%
AC50 [1]: 20.6 µM [rising, single point]

CC(C)CC(NC(=O)C1CCC(C)CC1)C(=O)Nc1ccccc1F (configuration not stated)
cell number change: 9.01%

CCOc1cc(C2NC(=O)NC(O)(C(F)(F)F)C2C(=O)c2ccc(OC)cc2)ccc1O (configuration not stated)
cell number change: -24.2%
AC50 [1]: 1.64 µM [falling, single point]

CCOC(=O)c1ccccc1NC(=O)CC1Nc2ccccc2NC1=O (configuration not stated)
cell number change: -0.135%
AC50 [2]: 1.84 µM [rising, single point]

CN(C)S(=O)(=O)c1cccc(NC(=O)CCc2nc3cc(S(=O)(=O)N4CCOCC4)ccc3n2C)c1
cell number change: 15.3%
AC50 [2]: 14.6 µM [rising, single point]

CC1CC(C)CN(S(=O)(=O)c2cc3c4c(c2)C(C)C(=O)N4CCC3)C1 (configuration not stated)
AC50 [2]: 29.1 µM [falling, single point]

CCOC(=O)CSc1nc2sc(C)c(C)c2c(=O)n1N
cell number change: 2.9%
AC50 [2]: 0.461 µM [rising, partial curve, poor fit]

COc1ccc(OC)c(C2=NOC(C(=O)N3CCN(c4ccccc4)CC3)C2)c1 (configuration not stated)
cell number change: -4.65%
AC50 [2]: 0.116 µM [falling, full curve, poor fit]

O=C(COC(=O)/C=C/c1ccc(Br)o1)Nc1ccc2[nH]c(=O)[nH]c2c1
AC50 [2]: 25.9 µM [falling, partial curve, poor fit]

Cc1cc(Cl)ccc1OCC(=O)Nc1ccccc1N1CCOCC1
cell number change: 33.8%
AC50 [1]: 7.31 µM [rising, partial curve, poor fit]
AC50 [2]: 6.51 µM [rising, single point]

O=C1CC(Sc2nnnn2C2CCCCC2)C(=O)N1c1ccccc1 (configuration not stated)
cell number change: -76.8%
AC50 [1]: 20.6 µM [falling, partial curve]
AC50 [2]: 23.1 µM [falling, partial curve]

Nc1cccc2c1C(=O)N(C(=O)/C=C/c1cccc(Br)c1)C2=O
cell number change: -61.1%
AC50 [1]: 18.4 µM [falling, single point]
AC50 [2]: 16.4 µM [falling, single point]

N#Cc1nc(-c2ccc(F)cc2)oc1NCc1ccccc1
cell number change: -29.5%
AC50 [2]: 5.17 µM [rising, full curve, poor fit]

CCC(=O)Nc1c(-c2ccc(C)cc2)c(=O)c2ccccc2n1C
cell number change: -3.55%

COc1cc(C(=O)NCCCc2nc3ccccc3n2Cc2cc(C)ccc2C)cc(OC)c1OC
cell number change: -37.8%
AC50 [1]: 23.1 µM [falling, single point]
AC50 [2]: 23.1 µM [falling, single point]

COc1ccc(/C=C(\NC(=O)c2ccc(C)cc2)C(=O)NCCCn2ccnc2)cc1
cell number change: 21.6%
AC50 [2]: 0.146 µM [rising, partial curve, poor fit]

CCOC(=O)C1C(O)=CC(=O)CC1c1ccccc1 (configuration not stated)
cell number change: -36.8%
AC50 [1]: 7.31 µM [falling, single point]
AC50 [2]: 29.1 µM [rising, single point]

O=C(C1CCCN(S(=O)(=O)c2ccccc2)C1)N1CCN(c2ncccn2)CC1 (configuration not stated)
AC50 [2]: 23.1 µM [falling, partial curve, poor fit]

COc1ccc(/C=C(\NC(=O)c2ccccc2)C(=O)NCC2CCCO2)cc1 (configuration not stated)
cell number change: 26.4%
AC50 [1]: 7.31 µM [rising, partial curve]

CC(C)NC(=S)N/N=C/c1sc(N2CCCCC2)nc1-c1cccs1
AC50 [1]: 1.84 µM [rising, partial curve, poor fit]
AC50 [2]: 2.59 µM [falling, single point]

Cc1ccccc1CN1CCN(CC(=O)NC(C)c2ccccc2)CC1 (configuration not stated)
cell number change: 13.9%
AC50 [2]: 1.64 µM [rising, partial curve, poor fit]

COCCCN(C(=O)Cc1csc(-c2cccc(Cl)c2)n1)c1c(N)n(Cc2ccccc2)c(=O)[nH]c1=O
cell number change: -0.283%

Fc1ccccc1CCNc1nnnn1-c1ccccc1
AC50 [1]: 4.11 µM [rising, partial curve]
AC50 [2]: 6.51 µM [rising, single point]

Cc1ccc2ncnc(NCCCCCC(=O)O)c2c1
cell number change: 15.3%
AC50 [2]: 0.00517 µM [falling, full curve]

CCOc1ccc(C(=O)N2CCN(Cc3ccccc3)CC2)cc1OCC
cell number change: -0.324%
AC50 [2]: 4.11 µM [rising, full curve, poor fit]

O=c1oc(-c2ccccc2F)nc2c1cnn2-c1ccccc1
cell number change: -25.6%
AC50 [2]: 23.1 µM [falling, partial curve]

CC12Cc3ccc4ccccc4c3C=C1C[N+](C)(C)C2 (configuration not stated)
cell number change: -46.8%
AC50 [1]: 0.461 µM [falling, full curve]
AC50 [2]: 18.4 µM [falling, partial curve]

Cc1cccc(N2CCN(C(=O)COc3ccc4c(c3)CCC4)CC2C)c1 (configuration not stated)
AC50 [2]: 29.1 µM [falling, partial curve, poor fit]

COc1ccc(CN(C)Cc2c(O)ccc3ccccc23)cc1
cell number change: -23.8%
AC50 [2]: 29.1 µM [rising, partial curve]

Nc1nonc1C(=O)NCCNC(=O)c1ccc(Cl)cc1
cell number change: 11.3%
AC50 [2]: 29.1 µM [rising, single point]

O=S(=O)(c1ccccc1)N1CCSC1c1ccco1 (configuration not stated)
cell number change: -35.6%
AC50 [1]: 0.0517 µM [falling, full curve]

O=S1(=O)CCN(OCc2ccc(F)cc2Cl)CC1
cell number change: 16.4%
AC50 [1]: 1.84 µM [falling, partial curve]
AC50 [2]: 0.651 µM [falling, partial curve, poor fit]

CN(Cc1c(F)cccc1Cl)c1ccc(S(=O)(=O)N2CCOCC2)cn1
cell number change: -37.5%
AC50 [1]: 4.11 µM [falling, partial curve]
AC50 [2]: 8.2 µM [falling, partial curve, poor fit]

Cc1cc(Cl)ccc1NC(=S)NCc1ccc(S(N)(=O)=O)cc1
cell number change: -18.7%

Cc1ccc(S(=O)(=O)N2CCCCC2)cc1C(=O)NCCC1=CCCCC1
AC50 [2]: 10.3 µM [falling, partial curve]

Cn1nc(C(=O)Nc2cccnc2)c2ccccc2c1=O
cell number change: 9.26%
AC50 [2]: 4.11 µM [rising, full curve]

CCOc1ccc(Br)cc1C(=S)N1CCCC1
cell number change: -11.7%

COc1ccc(C(NC(=O)CN2C(=O)NC3(CCc4ccccc43)C2=O)c2ccc(OC)cc2)cc1 (configuration not stated)
cell number change: -66.1%
AC50 [1]: 5.17 µM [falling, single point]

O=C(c1cccc(C(=O)N2CCN(c3ccccc3F)CC2)c1)N1CCN(c2ccccc2F)CC1
cell number change: -4.77%

CCOC(=O)C1CCN(c2cc(C)nc3ccc(OC)cc23)CC1
cell number change: -1.48%
AC50 [1]: 6.51 µM [rising, single point]
AC50 [2]: 6.51 µM [rising, single point]

COc1ccc(-c2noc(N3CCC(C(=O)Nc4cccc(OC)c4)CC3)n2)cc1
cell number change: 19.3%
AC50 [2]: 29.1 µM [falling, single point]

O=C(CSc1nc2ccccc2c(=O)n1-c1ccccc1)NCC1CCCO1 (configuration not stated)
cell number change: -1.35%
AC50 [2]: 29.1 µM [falling, single point]

Cc1ccc(C(=O)c2c3ccc(C(F)(F)F)cc3nn2CCC(N)=O)cc1
cell number change: -6.01%
AC50 [2]: 0.517 µM [rising, full curve, poor fit]

CC1CC(CC(=O)NC(=S)Nc2ccccc2Cl)C(=O)O1 (configuration not stated)
cell number change: 9.38%
AC50 [2]: 0.82 µM [falling, single point]

CN(C)CCC(O)(c1ccccc1)c1ccccc1
cell number change: -113%
AC50 [1]: 29.1 µM [falling, partial curve, poor fit]
AC50 [2]: 0.326 µM [falling, partial curve, poor fit]

COCCCN1C(=O)N(c2ccccc2)C(=O)C1CC(=O)Nc1ccccc1 (configuration not stated)
cell number change: 18%

O=C(C1CC(c2ccccc2O)=NO1)N1CCc2ccccc2C1 (configuration not stated)
cell number change: 2.71%

CC(OC(=O)c1ccc(F)c(S(=O)(=O)N2CCOCC2)c1)C(=O)NCC1CCCCC1 (configuration not stated)
cell number change: 13.3%
AC50 [2]: 4.11 µM [falling, single point]

Cc1nc2ccccc2nc(=O)c1NNc1ccccc1
cell number change: 0.794%

Oc1ccc2ccccc2c1N=Nc1ccccn1
cell number change: -98.7%
AC50 [1]: 20.6 µM [falling, partial curve]
AC50 [2]: 18.4 µM [falling, single point]

CC1CC(C)CN(C(=O)c2ccc(S(=O)(=O)N3CCCC3)cc2)C1 (configuration not stated)
cell number change: 32.2%
AC50 [1]: 35.5 µM [rising, single point]

O=C(CCN1C(=O)C2CCCCC2C1=O)N1CCN(S(=O)(=O)c2c(F)cccc2F)CC1 (configuration not stated)
AC50 [1]: 6.51 µM [falling, single point]

COc1ccc(CSCC(=O)NN=C2CCN(C)CC2)cc1
cell number change: 14.3%
AC50 [1]: 0.0731 µM [falling, partial curve, poor fit]

C=CC(=O)Nc1ccc(Br)cc1
cell number change: 31.2%
AC50 [1]: 7.31 µM [rising, partial curve]
AC50 [2]: 6.51 µM [rising, single point]
